From PubChem BioAssay AID1508600 (Functional Genomics Laboratory (NCATS/FGL), 2020)
Screen size: about 53,000 sequences; about 3,700 (7%) were called active.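 The calls were made as follows: active = gene knockdowns whose robust z-score for IL-1 alpha signal is at least 2 or at most -2, so actives lie on both sides; inactive = the rest.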 The list shows a part of the results.

Experiment: Components of the Cytosolic LPS Sensing Pathway: Gene Identification via Genome-wide siRNA Screen;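 also: robust z of the log signal after scaling to non-targeting control siRNA wells of the plate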
Conditions: RAW264.7 macrophages, IL-1a HTRF, actives lie on both sides, screened at 100 nM (by protocol), cells primed 5 h with Pam3CSK4 first
In short: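 Three distinct siRNAs per gene were tested singly at 100 nM in RAW264.7 macrophages. Following Pam3CSK4 priming and 24 hour LipidA transfection, IL-1a secretion was read by HTRF.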

| Sequence | z-score |
| --- | --- |
| GGGUUUAGAGACCCUGAGATT against Klc2 | active: -2.09 |
| GGAACAAUUGUUUGAACCCTT against Fem1a | inactive: -0.116 |
| GGAAGACUCUGAAUUAGGGTT against Dusp13 | inactive: -0.28 |
| CCAGAUAAACCAUAUCCCATT against Flrt2 | inactive: -1.06 |
| GCCAUGGUAAACAUCUUAUTT against Olfr827 | inactive: -1.38 |
| GGAAGCCAUCAUGAAAAUGTT against Zfand3 | inactive: 0.184 |
| GCUAAGAACUUGAUCAACCTT against Camk2g | inactive: -0.673 |
| GGCUCAGAAUUAUCUUAGATT against Mmp7 | inactive: -0.478 |
| GGUCGCUACGUUUCUACAATT against Loxl1 | inactive: 0.108 |
| GGAUGAAGACCUUUCGGAGTT against Mapk8ip1 | inactive: 0.0581 |
| GGCAACUUUAUACACAAACTT against Vmn1r13 | inactive: -0.283 |
| GGUUAAAGGUCAGAUUUAGTT against Dapk2 | active: 2.54 |
| GGUAAUUCGGUUCAAACCATT against Henmt1 | inactive: -0.873 |
| GCUCGCUCUCAAAUUUUCGTT against Catsper1 | inactive: -0.446 |
| GGAGCUACAGGCUAUCAGUTT against Bpi | inactive: -1.78 |
| GGUACAGAACUCAUUUUUGTT against Grm6 | inactive: 0.167 |
| GGUAGGGACCUAUCCUUGGTT against Cramp1l | inactive: -0.518 |
| GGAGAAACAGCAGUACUUGTT against Hmg20b | inactive: 0.0903 |
| GCUUAUGGGUGGCUUUAAGTT against Knop1 | inactive: 1.02 |
| CGACUGGGUCUUAUGUUUATT against Tas2r121 | inactive: -0.105 |
| GCAGAGGACAAGAAGCUUATT against Macroh2a2 | inactive: -1.4 |
| GGUGCAUUCCUUGUGAAUGTT against Ctbp2 | inactive: 0.141 |
| GGUGAAAAUCAAGCUUGCUTT against Htr1d | inactive: -0.725 |

Four entries from above, tab-delimited.
Sequence	z-score
GCUAAGAACUUGAUCAACCTT against Camk2g	inactive: -0.673
GGCUCAGAAUUAUCUUAGATT against Mmp7	inactive: -0.478
GGUCGCUACGUUUCUACAATT against Loxl1	inactive: 0.108
GGAUGAAGACCUUUCGGAGTT against Mapk8ip1	inactive: 0.0581

Continuation.

| Sequence | z-score |
| --- | --- |
| CGGGUAUCCAAAGUUGUUCTT against Hpx | inactive: -1.09 |
| GGAUCUUGAGUUGGAGUCCTT against Nupr1l | inactive: -0.319 |
| GGCAUAACCGCCAUGUCAGTT against Mnd1 | inactive: -1.74 |
| ACUGUCAUGCACCCUAAAGTT against Olfr132 | inactive: 0.369 |
| GGCAAUGCUGGAUUCUCUATT against Capn15 | inactive: 0.0127 |
| GGUAUUCUCUAAGAAGGAGTT against Kyat1 | inactive: 0.367 |
| CCAAUCCUCAACCUUGAAUTT against Ddx19a | inactive: 0.0508 |
| CCCAGGCUAUGACGAUUAUTT against Ssrp1 | inactive: 0.21 |
| GGAUUUUCAUACAAGGGCATT against Fmn1 | inactive: 0.579 |
| GGCUCUGCUAUUCACCAGUTT against Olfr1008 | inactive: 0.442 |
| CCGUUUCUUCCUAAUUGGUTT against Tmem41b | inactive: 0.929 |
| GGUAUUGCUGUGCUGAGGATT against Olfr675 | inactive: 0.858 |
| GGCUGUGCAACAGAAAAUGTT against 2210407C18Rik | inactive: -0.661 |
| GGUCUAUGUCCAAAAAGAATT against Fam117b | inactive: -1.45 |
| GCCUAUUGUAAAUACAGGUTT against Bdnf | inactive: 0.6 |
| GGAAGGAAGUCAUUUUUUCTT against Msantd4 | inactive: -1.29 |
| CCGAAAUGUGUGUUUUAAATT against Vapb | inactive: 1.57 |
| GCAGUACAAGCGAUUUGUGTT against Duox2 | inactive: -1.25 |
| GGGUUAAAGUGCCACGUACTT against Apoc4 | inactive: 0.641 |
| GGAGGAAAAGAAAAUUGAGTT against Nefm | inactive: -0.125 |
| CCCAUGUUCGAUGGGAAAGTT against Parp1 | inactive: -0.186 |
| GCAAGAAAAUCUGAUGCCGTT against Sumf2 | inactive: -0.796 |
| GGUGGACAAGAUGAUGGAATT against Gps2 | inactive: 1.92 |

| Sequence | z-score |
| --- | --- |
| GCUACUCAUUGCUAAGUGUTT against Kcnmb2 | inactive: -0.588 |
| GGUUAUGGAGACAAAGGAUTT against Sik1 | inactive: -1.33 |
| GCUGAAUUUUACGAUGAUUTT against Zc3h6 | inactive: -0.88 |
| GCUGUCCUUCUAUAACCCATT against Frmd5 | inactive: -1.68 |
| GGUUCGUUUUUUGUUGGAATT against Tmed4 | inactive: 1.31 |
| GGAUGAACAGGAGAAAGUCTT against Irak2 | inactive: -1.7 |
| CCUACUCAGUGUCUUUCAATT against Esrp2 | inactive: 0.845 |
| CCGGUACCUAAACUACUUCTT against Unc5b | inactive: 1.23 |
| GCGUAAACCAAGAAAGCUUTT against Mcl1 | inactive: -0.738 |
| GUGUGGAAGGAAGAGGUUUTT against Orai1 | inactive: 0.826 |
| GCUGCUCUGCUAUAAGUAUTT against Kptn | inactive: -0.269 |
| AGAGAGACUUAUGUCUUUUTT against Draxin | inactive: 0.381 |
| GUUUGAAACUCACUGGAAATT against Vmn1r74 | inactive: 0.916 |
| GGCUAUGGUUGUGAGUCAATT against Btbd7 | inactive: -0.509 |
| GGAGAAAGUCUUUGUGAACTT against Lipc | inactive: -1.1 |
| GGAUCAUUUUGAACAAGGCTT against Srl | inactive: -0.199 |
| GGUCAAGUCAAUUACAGUUTT against Aifm1 | inactive: 1.34 |
| GGGCAAGGUGUAUUGUCAATT against D830050J10Rik | inactive: -0.00921 |
| CGUUUUUUUCCUGAGCUAUTT against Ccdc115 | inactive: 0.171 |
| GGGUUGCUAAAUUUGAAACTT against Psg25 | inactive: 0.949 |
| GGUGAUGAAAAUGACAUUCTT against Atp1b4 | inactive: 0.173 |
| GCCAAGCCUUUAUCUACCGTT against Fam120b | inactive: -0.749 |
